In all, about 71,000 compounds went through this assay and about 310 (0.44%) were called active. The shares of active, inactive and inconclusive entries below differ from those in the screen. Calls come from the whole dose curve; as a rule, active = well fitted curve in either direction with a large enough effect; inconclusive = small, poorly fitted or top-dose-only effect, or another doubt; inactive = flat fitted curve, though single readings scatter. Where the call is inconclusive, the potency comes from a doubtful curve fit.
tested on: Hsp90 C-terminal peptide / TPR2A (Hop) interaction, human; test: qHTS Assay for Disrupters of an Hsp90 Co-Chaperone Interaction; details: AlphaScreen TPR2A-His6 binding biotin-Hsp90 C-terminal peptide; activity change, negative = inhibition: at 57 µM (top of the series) unless noted
% is set by controls: 0 for no effect and ±100 for the full control effect; potency is the fitted concentration of half-maximal effect.

| SMILES | Potency | activity change, negative = inhibition |
| --- | --- | --- |
| COc1ccc(OC)c(-n2c(N)c(C(=O)NCC3CCCO3)c3nc4ccccc4nc32)c1 (stereo unspecified) | inconclusive: 20 µM [activator, partial curve] |  |
| COc1ccc(-c2ccc(-c3noc(C(C)C)n3)c(OC)n2)cc1 | inconclusive: 31.6 µM [activator, single point] |  |
| O=c1ccc2c(OCCCCc3ccccc3)c3ccoc3cc2o1 | inconclusive: 31.6 µM [activator, partial curve] |  |
| COc1cccc(/C(O)=C2/C(=O)C(=O)N(CCN(C)C)C2c2ccccn2)c1 (stereo unspecified) | inconclusive: 39.8 µM [inhibitor, single point] |  |
| Nc1nncn1C(=O)c1ccccc1Cl |  | inconclusive: 31.5% |
| CCCOc1ccccc1C1C(C(=O)OC)=CN(C(C)C)C=C1C(=O)OC | inconclusive: 25.1 µM [activator, partial curve] |  |
| Cc1cc(Oc2ccccc2)nc(-c2ccccc2)n1 | inconclusive: 3.16 µM [activator, single point] |  |
| COc1cccc2c1C(=O)c1c(O)c3c(c(O)c1C2=O)C[C@](O)(C(C)=O)C[C@H]3O[C@@H]1C[C@H](N)[C@H](O)[C@H](C)O1 | inconclusive: 15.8 µM [inhibitor, single point] |  |
| COc1ccc(OC)c(Nc2nc(-c3sc(C)nc3C)cs2)c1 | inconclusive: 25.1 µM [inhibitor, partial curve] |  |
| Nc1cccc(C(=O)Nc2ccc3nc(-c4cccnc4)[nH]c3c2)c1 |  | inconclusive: 43.6% |
| CC(=O)Nc1ccc(S(=O)(=O)N(C)c2ccccc2)cc1 |  | inactive |
| O=C(c1ccc2nc(-c3ccco3)c(-c3ccco3)nc2c1)N1CCN(c2ccccc2)CC1 | inconclusive: 15.8 µM [inhibitor, partial curve] |  |
| CCCCOn1c(C)c(C(=O)OCC)c2c3nonc3ccc21 | active: 31.6 µM [activator] |  |
| O=C(CSc1ncn[nH]1)c1ccco1 |  | inconclusive: 51.2% |
| CCOc1ccc(-c2n[nH]c(C)c2Oc2ccc(OC)cc2)c(O)c1 |  | inactive |
| CC(=O)Nc1nc2ccccc2n1CCN(C)C |  | inactive |
| CCC(c1nnc(SCC(=O)NCCc2ccc(Cl)cc2Cl)o1)N(C)C (stereo unspecified) |  | inconclusive: 48.5% |
| CSc1nnc(-c2cc3ccccc3cc2O)n1C |  | inconclusive: 66.6% |
| CCCCC/C=C\C[C@H](O)/C=C\c1cccc(C[C@H](O)CCCCO)n1 |  | inactive |
| O=C(c1ccco1)N1CCC[C@@]2(CCN(c3cccc(-c4ccccc4)c3)C2)C1 | inconclusive: 25.1 µM [inhibitor, partial curve] |  |
| CCC(=O)c1cc(F)c(N2CCN(C(=O)Cc3ccccc3)CC2)cc1C |  | inconclusive: 71.2% |
| Cc1cccc(OCCOC(=O)C2CCN(S(=O)(=O)c3cccs3)CC2)c1 | inconclusive: 25.1 µM [activator, single point] |  |
| CCN(C(=O)c1cn(C)c(=O)c2cc(OC)c(OC)cc12)c1cc(C)ccc1C |  | inconclusive: 37.9% |
| CN(C)c1ccc(NC(=O)CN2CCC(C(=O)c3ccc(F)cc3)CC2)cc1 |  | inactive |
| CCSc1ccccc1C(=O)Nc1cc(C)on1 |  | inconclusive: 42% |
| Cc1ccc(S(=O)(=O)N(C)CCCC(=O)N2CCN(C=O)CC2)cc1 |  | inactive |

| SMILES | Potency | activity change, negative = inhibition |
| --- | --- | --- |
| CCOC(=O)C1CCN(C(=O)Cn2cc(C(=O)C3CC3)c3ccccc32)CC1 |  | inconclusive: 56% |
| CCOC(=O)c1oc2ccccc2c1CSc1nnnn1-c1ccc(C)cc1 |  | inconclusive: 55.5% |
| O=C(O)C/C=C\CC(=O)O |  | inconclusive: 89.9% [at 11 µM] |
| O=c1c2c(nc3c(-c4ccc(Cl)cc4)c[nH]n13)CCCC2 |  | inconclusive: 49.8% |
| Cc1ccc(NC(=O)C(C)N2C(=O)C3CC=C(Cl)CC3C2=O)cc1 (stereo unspecified) |  | inconclusive: 50.6% |
| Cc1noc(C)c1C(=O)N1CCC2(CC1)CN(c1ccccc1)C2 |  | inactive |
| Cc1cc(C)cc(-n2nnc(C(=O)NCc3ccc4c(c3)OCO4)c2N)c1 |  | inconclusive: 51.6% |
| Clc1ccccc1Cn1nnc(-c2cccs2)n1 | inconclusive: 31.6 µM [activator, single point] |  |
| CCC(=O)Nc1c(OC(=O)CC)ccc2c(C)cc(=O)oc12 |  | inconclusive: 41.7% |
| Clc1ccc(Cn2ncc3c(N4CCCCC4)ncnc32)cc1 |  | inactive |
| Cc1ccc(Nc2c3c(nc4ncnn24)CCC3)cc1 |  | inactive |
| Cn1c(Cc2csc(N)n2)nnc1SCC(=O)NC1CCCCC1 | inconclusive: 31.6 µM [inhibitor, single point] |  |
| COP(=O)(/C=C/c1ccccc1)C(O)c1ccc(F)cc1 (stereo unspecified) |  | inconclusive: 46% |
| O=C(c1cc(-c2ccc(Cl)cc2Cl)on1)N1CCOCC1 |  | inactive |
| CCN(CC)c1ccc(NC(=O)c2ccco2)c(C)c1 |  | inconclusive: 37.6% |
| COc1ccccc1-c1nc(NCc2ccccc2)c2ccccc2n1 |  | inactive |
| Cc1ccc(OCc2nc(C#N)c(N3CCN(Cc4ccccc4)CC3)o2)cc1 | inconclusive: 15.8 µM [inhibitor, partial curve] |  |
| O=C(CN1CC(=O)Oc2ccccc21)OCC(=O)c1ccccc1 | active: 3.16 µM |  |
| COc1ccccc1C1/C(=C(/O)c2ccc(Cl)cc2)C(=O)C(=O)N1CCN1CCOCC1 (stereo unspecified) |  | inconclusive: 45.2% |
| Nc1c(S(=O)(=O)O)cc(Nc2ccc(Nc3nc(Cl)nc(Nc4ccc(S(=O)(=O)O)cc4)n3)c(S(=O)(=O)O)c2)c2c1C(=O)c1ccccc1C2=O | inconclusive: 15.8 µM [inhibitor, partial curve] |  |
| Cc1ccc(S(=O)(=O)Nc2c(C)n(C)n(-c3ccccc3)c2=O)cc1C(=O)NCc1ccccn1 |  | inconclusive: 27% |
| CCOc1ccc(OCc2ccc(C(=O)Nc3cccc(C)n3)o2)cc1 |  | inconclusive: 78% |
| COc1ccccc1NC(=O)c1ccc(NS(C)(=O)=O)cc1 |  | inactive |
| CC(C)N(Cc1nc(-c2ccc(Cl)cc2)no1)C(=O)CN(C)S(=O)(=O)c1ccc(Cl)cc1 | inconclusive: 6.31 µM [inhibitor, single point] |  |
| CCCCn1c(NCc2ccccn2)nc2ccccc21 | inconclusive: 31.6 µM [inhibitor, single point] |  |

Structures from the list above containing a thiophene ring, fused or not:

| SMILES | Potency | activity change, negative = inhibition |
| --- | --- | --- |
| Cc1cccc(OCCOC(=O)C2CCN(S(=O)(=O)c3cccs3)CC2)c1 | inconclusive: 25.1 µM [activator, single point] |  |
| Clc1ccccc1Cn1nnc(-c2cccs2)n1 | inconclusive: 31.6 µM [activator, single point] |  |

Source: PubChem BioAssay AID595 (National Center for Advancing Translational Sciences (NCATS), 2007)
